Data reported in the supplement of paper PMC10849652.
Some of the results follow.

By UniProt entry, the sequences of proteins in these tests, tags left out. Where a name states a change or a piece, a line headed by the entry shows the natural chain unless it says otherwise.
UniProt P62937, whole entry, looked up: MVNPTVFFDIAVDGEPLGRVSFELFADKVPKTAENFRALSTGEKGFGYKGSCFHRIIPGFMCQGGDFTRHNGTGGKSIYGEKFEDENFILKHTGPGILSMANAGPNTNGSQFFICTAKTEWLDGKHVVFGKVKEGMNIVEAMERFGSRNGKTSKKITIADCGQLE
UniProt O75688: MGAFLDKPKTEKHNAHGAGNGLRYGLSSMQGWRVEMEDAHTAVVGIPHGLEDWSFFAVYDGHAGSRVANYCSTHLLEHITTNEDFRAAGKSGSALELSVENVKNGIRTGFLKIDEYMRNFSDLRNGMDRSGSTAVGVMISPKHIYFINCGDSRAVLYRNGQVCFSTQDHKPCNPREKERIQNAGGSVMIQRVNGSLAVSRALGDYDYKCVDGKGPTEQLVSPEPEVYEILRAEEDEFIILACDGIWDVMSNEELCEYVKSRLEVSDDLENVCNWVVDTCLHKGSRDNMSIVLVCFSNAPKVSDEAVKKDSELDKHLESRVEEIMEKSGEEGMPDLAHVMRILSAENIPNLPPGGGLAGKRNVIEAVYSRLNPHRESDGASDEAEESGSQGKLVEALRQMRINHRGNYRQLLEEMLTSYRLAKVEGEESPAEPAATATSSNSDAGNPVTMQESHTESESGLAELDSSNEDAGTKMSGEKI
UniProt Q9BY77: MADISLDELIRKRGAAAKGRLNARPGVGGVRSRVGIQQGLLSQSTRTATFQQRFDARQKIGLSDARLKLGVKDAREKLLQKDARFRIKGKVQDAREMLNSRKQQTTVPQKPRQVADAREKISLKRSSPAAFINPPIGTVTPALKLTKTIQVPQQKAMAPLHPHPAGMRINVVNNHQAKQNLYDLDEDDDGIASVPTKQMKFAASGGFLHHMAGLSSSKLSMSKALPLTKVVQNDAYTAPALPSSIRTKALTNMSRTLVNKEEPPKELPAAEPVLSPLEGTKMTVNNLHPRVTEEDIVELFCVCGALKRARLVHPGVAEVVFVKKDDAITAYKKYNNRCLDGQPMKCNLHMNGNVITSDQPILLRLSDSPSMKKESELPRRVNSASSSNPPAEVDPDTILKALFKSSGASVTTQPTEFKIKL
UniProt Q13136: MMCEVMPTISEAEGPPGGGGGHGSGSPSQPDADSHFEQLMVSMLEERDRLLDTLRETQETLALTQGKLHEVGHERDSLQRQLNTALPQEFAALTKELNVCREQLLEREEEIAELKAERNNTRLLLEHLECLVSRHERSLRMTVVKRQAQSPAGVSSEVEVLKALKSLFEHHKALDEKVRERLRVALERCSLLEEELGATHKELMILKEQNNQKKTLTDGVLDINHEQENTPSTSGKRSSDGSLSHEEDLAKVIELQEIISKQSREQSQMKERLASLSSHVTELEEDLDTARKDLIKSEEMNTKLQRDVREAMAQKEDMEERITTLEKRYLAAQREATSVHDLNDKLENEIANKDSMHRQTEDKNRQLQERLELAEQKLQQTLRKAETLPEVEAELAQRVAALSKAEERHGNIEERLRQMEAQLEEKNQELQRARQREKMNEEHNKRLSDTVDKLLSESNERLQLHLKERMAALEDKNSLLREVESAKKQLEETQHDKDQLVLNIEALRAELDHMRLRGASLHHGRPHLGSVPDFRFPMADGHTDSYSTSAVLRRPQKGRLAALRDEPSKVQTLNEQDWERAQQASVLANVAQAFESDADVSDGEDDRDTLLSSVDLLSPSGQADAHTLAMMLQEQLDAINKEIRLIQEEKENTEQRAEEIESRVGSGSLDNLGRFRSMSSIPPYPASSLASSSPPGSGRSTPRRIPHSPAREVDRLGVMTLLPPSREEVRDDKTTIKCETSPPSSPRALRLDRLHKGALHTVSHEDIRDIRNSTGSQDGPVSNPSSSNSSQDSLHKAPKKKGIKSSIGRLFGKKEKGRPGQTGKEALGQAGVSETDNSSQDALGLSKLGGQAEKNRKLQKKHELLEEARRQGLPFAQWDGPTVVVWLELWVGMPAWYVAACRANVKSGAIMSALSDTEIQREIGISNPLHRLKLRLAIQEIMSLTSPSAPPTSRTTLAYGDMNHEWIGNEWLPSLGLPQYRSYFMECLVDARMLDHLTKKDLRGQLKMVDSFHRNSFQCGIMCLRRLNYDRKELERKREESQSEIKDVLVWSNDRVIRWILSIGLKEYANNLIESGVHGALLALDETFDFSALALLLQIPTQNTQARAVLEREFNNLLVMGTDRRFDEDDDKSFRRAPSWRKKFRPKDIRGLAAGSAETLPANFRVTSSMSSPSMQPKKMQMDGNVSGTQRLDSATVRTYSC
UniProt Q6P1K2: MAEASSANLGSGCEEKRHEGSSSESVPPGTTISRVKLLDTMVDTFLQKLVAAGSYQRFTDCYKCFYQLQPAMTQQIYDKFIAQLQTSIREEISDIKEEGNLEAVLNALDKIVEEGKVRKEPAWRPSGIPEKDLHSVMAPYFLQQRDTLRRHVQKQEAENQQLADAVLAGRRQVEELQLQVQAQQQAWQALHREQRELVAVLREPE
UniProt Q9UHN1: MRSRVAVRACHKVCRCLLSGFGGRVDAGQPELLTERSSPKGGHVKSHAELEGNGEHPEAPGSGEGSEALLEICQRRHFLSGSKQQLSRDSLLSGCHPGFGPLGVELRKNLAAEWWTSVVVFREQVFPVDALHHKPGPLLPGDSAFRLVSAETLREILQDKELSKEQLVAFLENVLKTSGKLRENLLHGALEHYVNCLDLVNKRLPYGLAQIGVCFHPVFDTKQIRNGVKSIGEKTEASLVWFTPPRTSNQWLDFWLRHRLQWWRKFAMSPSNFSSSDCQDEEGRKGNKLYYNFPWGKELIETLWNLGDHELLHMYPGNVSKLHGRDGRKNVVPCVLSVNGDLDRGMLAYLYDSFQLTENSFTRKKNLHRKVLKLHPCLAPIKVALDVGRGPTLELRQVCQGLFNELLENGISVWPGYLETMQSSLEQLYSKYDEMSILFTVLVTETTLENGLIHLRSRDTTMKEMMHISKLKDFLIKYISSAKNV
UniProt O60664: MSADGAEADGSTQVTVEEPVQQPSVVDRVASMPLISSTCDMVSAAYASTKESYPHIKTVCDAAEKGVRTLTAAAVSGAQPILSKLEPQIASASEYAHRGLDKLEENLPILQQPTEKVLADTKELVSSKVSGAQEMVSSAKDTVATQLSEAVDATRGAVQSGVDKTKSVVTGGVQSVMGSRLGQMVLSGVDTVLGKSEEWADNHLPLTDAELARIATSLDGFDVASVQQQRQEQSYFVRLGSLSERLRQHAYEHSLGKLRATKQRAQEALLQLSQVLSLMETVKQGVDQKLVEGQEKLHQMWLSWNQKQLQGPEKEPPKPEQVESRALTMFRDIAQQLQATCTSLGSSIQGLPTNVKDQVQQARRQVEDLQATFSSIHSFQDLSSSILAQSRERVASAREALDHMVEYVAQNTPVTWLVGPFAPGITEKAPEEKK
UniProt Q06203, whole entry, looked up: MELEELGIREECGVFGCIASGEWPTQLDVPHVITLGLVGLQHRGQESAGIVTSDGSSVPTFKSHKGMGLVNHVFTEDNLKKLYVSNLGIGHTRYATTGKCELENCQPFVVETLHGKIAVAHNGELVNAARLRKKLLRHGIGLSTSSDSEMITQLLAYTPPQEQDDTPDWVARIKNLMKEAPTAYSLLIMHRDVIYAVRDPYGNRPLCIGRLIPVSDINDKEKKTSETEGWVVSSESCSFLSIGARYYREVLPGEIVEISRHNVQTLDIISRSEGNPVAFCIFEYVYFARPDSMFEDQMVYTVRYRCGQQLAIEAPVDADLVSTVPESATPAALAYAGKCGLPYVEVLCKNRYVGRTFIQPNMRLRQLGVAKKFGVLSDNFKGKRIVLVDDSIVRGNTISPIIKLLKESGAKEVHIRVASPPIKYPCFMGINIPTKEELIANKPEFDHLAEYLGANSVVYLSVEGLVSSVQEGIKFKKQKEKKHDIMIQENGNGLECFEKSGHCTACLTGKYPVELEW
UniProt Q9H2U2: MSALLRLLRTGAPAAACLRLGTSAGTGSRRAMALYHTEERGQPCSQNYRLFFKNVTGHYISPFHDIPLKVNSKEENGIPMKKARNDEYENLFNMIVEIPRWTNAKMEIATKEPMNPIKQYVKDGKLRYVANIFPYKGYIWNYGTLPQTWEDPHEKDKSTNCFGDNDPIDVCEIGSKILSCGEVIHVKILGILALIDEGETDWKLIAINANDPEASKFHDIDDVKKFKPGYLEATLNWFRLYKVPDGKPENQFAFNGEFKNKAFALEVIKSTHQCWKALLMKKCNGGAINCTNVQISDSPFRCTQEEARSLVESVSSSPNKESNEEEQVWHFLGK
UniProt Q15063: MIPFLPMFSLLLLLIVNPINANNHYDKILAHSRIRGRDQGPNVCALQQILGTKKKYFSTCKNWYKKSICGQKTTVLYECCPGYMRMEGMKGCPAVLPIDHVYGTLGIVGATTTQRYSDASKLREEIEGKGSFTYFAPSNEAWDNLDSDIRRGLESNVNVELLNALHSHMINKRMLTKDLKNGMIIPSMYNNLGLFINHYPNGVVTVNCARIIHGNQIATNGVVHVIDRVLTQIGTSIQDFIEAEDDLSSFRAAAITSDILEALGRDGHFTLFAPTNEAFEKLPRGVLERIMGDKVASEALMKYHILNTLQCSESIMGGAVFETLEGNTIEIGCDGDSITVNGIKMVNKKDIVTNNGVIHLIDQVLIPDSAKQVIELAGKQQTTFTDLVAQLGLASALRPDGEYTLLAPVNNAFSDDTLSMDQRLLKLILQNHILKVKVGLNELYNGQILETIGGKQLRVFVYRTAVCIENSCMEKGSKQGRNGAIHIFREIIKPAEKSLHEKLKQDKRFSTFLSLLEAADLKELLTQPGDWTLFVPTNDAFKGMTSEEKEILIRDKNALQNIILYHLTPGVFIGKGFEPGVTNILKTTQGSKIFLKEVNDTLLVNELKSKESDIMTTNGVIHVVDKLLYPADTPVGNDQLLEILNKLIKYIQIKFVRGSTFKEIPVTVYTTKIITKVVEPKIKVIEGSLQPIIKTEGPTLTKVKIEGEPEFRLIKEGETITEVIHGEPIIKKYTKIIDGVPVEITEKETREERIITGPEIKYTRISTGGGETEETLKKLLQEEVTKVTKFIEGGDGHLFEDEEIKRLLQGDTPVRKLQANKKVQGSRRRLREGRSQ
UniProt Q9Y2S7: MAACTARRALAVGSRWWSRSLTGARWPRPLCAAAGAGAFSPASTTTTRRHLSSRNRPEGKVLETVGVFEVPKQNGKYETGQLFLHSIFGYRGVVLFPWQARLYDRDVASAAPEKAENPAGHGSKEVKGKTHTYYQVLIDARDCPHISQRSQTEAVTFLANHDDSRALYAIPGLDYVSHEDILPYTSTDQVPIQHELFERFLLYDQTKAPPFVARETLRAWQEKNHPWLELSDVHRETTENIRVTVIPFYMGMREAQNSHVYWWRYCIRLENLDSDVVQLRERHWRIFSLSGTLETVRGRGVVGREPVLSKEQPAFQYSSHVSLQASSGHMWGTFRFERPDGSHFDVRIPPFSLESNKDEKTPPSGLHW
UniProt Q6UW63: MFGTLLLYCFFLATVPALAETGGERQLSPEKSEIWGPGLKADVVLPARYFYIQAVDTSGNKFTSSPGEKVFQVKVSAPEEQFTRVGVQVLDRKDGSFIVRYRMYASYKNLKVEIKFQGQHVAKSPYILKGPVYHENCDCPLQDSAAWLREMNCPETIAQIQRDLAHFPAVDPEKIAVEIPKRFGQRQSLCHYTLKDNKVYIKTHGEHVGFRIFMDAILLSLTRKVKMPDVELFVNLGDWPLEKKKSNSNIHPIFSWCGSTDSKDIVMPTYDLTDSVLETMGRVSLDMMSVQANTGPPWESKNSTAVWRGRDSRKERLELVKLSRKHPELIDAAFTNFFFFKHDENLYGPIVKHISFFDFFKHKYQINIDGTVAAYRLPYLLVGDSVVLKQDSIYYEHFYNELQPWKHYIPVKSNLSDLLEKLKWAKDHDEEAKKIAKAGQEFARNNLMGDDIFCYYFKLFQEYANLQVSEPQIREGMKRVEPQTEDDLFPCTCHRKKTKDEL
UniProt Q8N490: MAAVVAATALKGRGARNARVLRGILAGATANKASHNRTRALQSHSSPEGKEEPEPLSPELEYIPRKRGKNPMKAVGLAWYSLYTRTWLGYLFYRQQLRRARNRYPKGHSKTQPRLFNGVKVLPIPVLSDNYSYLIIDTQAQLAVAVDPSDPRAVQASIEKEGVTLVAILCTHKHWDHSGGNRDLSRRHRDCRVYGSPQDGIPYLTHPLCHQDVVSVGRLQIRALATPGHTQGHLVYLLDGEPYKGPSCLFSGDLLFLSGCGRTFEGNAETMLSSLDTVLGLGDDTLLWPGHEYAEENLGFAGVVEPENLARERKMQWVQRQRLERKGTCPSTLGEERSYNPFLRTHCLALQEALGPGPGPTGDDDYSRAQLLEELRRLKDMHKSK
UniProt P30405: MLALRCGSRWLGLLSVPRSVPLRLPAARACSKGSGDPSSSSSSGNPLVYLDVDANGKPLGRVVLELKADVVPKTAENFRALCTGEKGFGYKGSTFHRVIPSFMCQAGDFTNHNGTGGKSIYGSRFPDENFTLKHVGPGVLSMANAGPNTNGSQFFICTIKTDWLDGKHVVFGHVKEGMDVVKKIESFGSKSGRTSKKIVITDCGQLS

compound: CN1CCc2c(c3ccccc3n2Cc2ccc(C(=O)NO)cc2)C1 [Tubastatin A]; assay: log2 fold change, soluble protein after heating vs DMSO (PISA); higher = thermal stabilisation; K562 cells, 10 uM, 30 min; active = over 0.2 and 3.5 SD of the protein, either way, in both replicates (recomputed)
Summary of the method: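 K562 cells at 2×10^6 cells/mL were given 10 μM compound for 30 min. Aliquots then went through 3 min of heating across 48°C-58°C, were pooled, and were extracted in PBS with 0.5% NP-40 at 4°C, and the supernatant after 21,000xg for 90 min was quantified by TMTpro 16plex LC-MS/MS with channel sums equalised. Thermal stability relative to control samples, from duplicates, is given as log2 fold change.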

log2 fold change, inactive:
POFUT2 (UniProt Q9Y2G5) 0.057
PPIA (UniProt P62937) -0.019
POLR3C (UniProt Q9BUI4) 0.018
POFUT1 (UniProt Q9H488) 0.132
PPM1B (UniProt O75688) -0.022
PPIP5K2 (UniProt O43314) -0.019
PNPO (UniProt Q9NVS9) -0.034
POLDIP3 (UniProt Q9BY77) -0.007
PPFIA1 (UniProt Q13136) 0.102
PMF1 (UniProt Q6P1K2) 0.013
POLG2 (UniProt Q9UHN1) 0.003
PLOD3 (UniProt O60568) 0.012
PLXNB2 (UniProt O15031) -0.008
PNO1 (UniProt Q9NRX1) 0.231
PLIN3 (UniProt O60664) -0.017
POMGNT1 isoform 2 (UniProt Q8WZA1) -0.014
POP7 (UniProt O75817) 0.074
PPAT (UniProt Q06203) -0.005
PPAN isoform 3 (UniProt Q9NQ55) 0.157
PPA2 (UniProt Q9H2U2) -0.005
POP5 (UniProt Q969H6) -0.029
POSTN (UniProt Q15063) -0.043
POLDIP2 (UniProt Q9Y2S7) 0.011
PPCDC (UniProt Q96CD2) 0.033
POLR2H (UniProt P52434) -0.021
POGLUT2 (UniProt Q6UW63) -0.011
POLR3F (UniProt Q9H1D9) 0.028
PPA1 (UniProt Q15181) 0.013
POTEF (UniProt A5A3E0) 0.034
POU2F1 isoform 6 (UniProt P14859) 0.089
PNKD isoform 2 (UniProt Q8N490) 0.049
PPIF (UniProt P30405) 0.026
PPIE (UniProt Q9UNP9) -0.027

Quoted at random: two entries already listed
log2 fold change, inactive:
PLIN3 (UniProt O60664) -0.017
PLOD3 (UniProt O60568) 0.012
